# pIC50: −log10 of the molar value.
# Protein sequences, listed by entry. Tags and fused reporters are not part of them. Residues count along the entry.
# UniProt Q9Y6K9, 1-196, species assumed: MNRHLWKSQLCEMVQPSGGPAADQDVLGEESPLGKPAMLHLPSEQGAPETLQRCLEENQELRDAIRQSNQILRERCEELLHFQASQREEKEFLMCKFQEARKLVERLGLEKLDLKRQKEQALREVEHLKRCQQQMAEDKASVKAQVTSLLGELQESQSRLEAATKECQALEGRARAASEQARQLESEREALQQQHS
# Molecular target: T1, NEMO (Homo sapiens, UniProt Q9Y6K9)
# T1 construct: made in house; host or cells: E. coli BL21 (DE3)
# Test: Competitive homogeneous time-resolved fluorescence (HTRF) assay for NEMO binding (GST-NEMO / biotin-IKKβKK/RR)
# Method: All experiments were performed in triplicates (n = 3).
# Source data are provided as a Source Data file. […]
smiles,measurement,value
CC(C)C[C@H](NC(=O)[C@H](C)NC(=O)[C@@H](NC(=O)[C@H](Cc1c[nH]cn1)NC(=O)[C@H](CO)NC(=O)[C@H](CO)NC(=O)[C@H](Cc1c[nH]cn1)NC(=O)[C@H](CO)NC(=O)[C@@H](N)Cc1c[nH]c2ccccc12)[C@@H](C)O)C(=O)N[C@@H](CC(=O)O)C(=O)N[C@@H](Cc1c[nH]c2ccccc12)C(=O)N[C@@H](CO)C(=O)N[C@@H](Cc1c[nH]c2ccccc12)C(=O)N[C@@H](CC(C)C)C(=O)N[C@@H](CCC(N)=O)C(=O)N[C@H](C(=O)N[C@@H](CCC(=O)O)C(N)=O)[C@@H](C)O [NBD+2],pIC50,4.30

# Source: article PMC10882002, “Design of target specific peptide inhibitors using generative deep learning and molecular dynamics simulations” (Nature Communications, 2024)
